In PMC9425024 one finds binding data, which are given here for one substance.

Results are given in words; binding and its absence hold for the method and conditions named. In cells and extracts the contact can be indirect. Sequences can lack the tags named with a protein.

This experiment concerns the target T1, bZIP25-cYFP (UniProt Q9M1G6).
T1 sequence: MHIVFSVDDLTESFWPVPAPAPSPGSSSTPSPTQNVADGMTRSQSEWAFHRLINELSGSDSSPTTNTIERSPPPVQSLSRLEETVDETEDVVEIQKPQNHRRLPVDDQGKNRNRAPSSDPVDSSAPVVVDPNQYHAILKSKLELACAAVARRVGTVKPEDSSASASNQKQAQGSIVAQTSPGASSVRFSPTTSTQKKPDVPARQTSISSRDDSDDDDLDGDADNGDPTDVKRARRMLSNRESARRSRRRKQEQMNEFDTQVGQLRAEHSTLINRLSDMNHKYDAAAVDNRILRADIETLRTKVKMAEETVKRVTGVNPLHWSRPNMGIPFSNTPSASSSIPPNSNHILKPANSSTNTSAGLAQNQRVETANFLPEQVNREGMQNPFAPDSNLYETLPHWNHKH
Put plainly: split reporter; BiFC with split YFP (pA7-nYFP, pA7-cYFP, CaMV35S promoter), pairs cotransformed into A. thaliana Col-0 protoplasts, fluorescence microscopy; binder written here = nYFP fusion, target = cYFP fusion.

With “CTD ProXp-ala fused to split YFP (CTD-nYFP, CTD-cYFP) (Arabidopsis thaliana) (domain or fragment)”, the binding entry is “no binding”.
